The values below come from paper PMC7555382.

Chains of the proteins cited; added tags and fusions are not shown. Residues count along the entry.
UniProt P30532, residues 23-468: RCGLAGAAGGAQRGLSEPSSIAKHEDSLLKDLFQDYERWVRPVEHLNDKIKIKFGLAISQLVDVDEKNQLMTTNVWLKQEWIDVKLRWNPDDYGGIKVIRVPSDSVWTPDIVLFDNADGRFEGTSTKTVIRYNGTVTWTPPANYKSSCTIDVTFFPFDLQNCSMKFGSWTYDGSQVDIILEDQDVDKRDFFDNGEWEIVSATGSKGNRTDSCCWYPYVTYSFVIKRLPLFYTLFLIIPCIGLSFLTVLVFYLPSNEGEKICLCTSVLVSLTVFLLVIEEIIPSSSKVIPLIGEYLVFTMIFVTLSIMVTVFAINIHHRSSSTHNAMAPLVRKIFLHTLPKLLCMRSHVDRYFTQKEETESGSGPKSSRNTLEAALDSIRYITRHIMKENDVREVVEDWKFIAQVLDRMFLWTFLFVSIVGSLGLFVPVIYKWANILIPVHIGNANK

The target in this assay is endogenous EGFR of H1975 cells (EGFR mutant) (human (endogenous in H1975)) (UniProt P00533). Put plainly: co-IP; lysates of untransfected A549 and H1975 cells immunoprecipitated with anti-α5 or anti-EGFR antibodies, western blot; A549 also after 8 h serum starvation and 1 h EGF or nicotine, which enhanced the association. For orientation: Immunoblotting shows a protein as a band on a membrane.

These are yes or no findings as the source states them, for the method shown. In cells and extracts the contact can be indirect. Binding can be weak; no strength is given.

In the case of “endogenous α5-nAChR (nicotinic acetylcholine receptor subunit α5) (from UniProt P30532 23-468)”, the binding entry is “binds”.
